Assay results taken from PubChem BioAssay AID2551 (National Center for Advancing Translational Sciences (NCATS), 2010).
In all, about 310,000 compounds went through this assay and about 17,000 (5.5%) were called active. Inconclusive results, whose numbers are uncertain, are shown with a selection of clear calls. Calls follow the shape of the dose curve; as a rule, active = well fitted inhibition curve with a large enough effect; inconclusive = small, poorly fitted or top-dose-only effect, or effect the other way; inactive = no such curve, though single readings can be large or run the other way. A potency beside an inconclusive call is a rough fit, not a confirmed value.

By UniProt entry, the sequences of proteins in these tests, tags left out. Where a name states a change or a piece, a line headed by the entry shows the natural chain unless it says otherwise.
UniProt P51450: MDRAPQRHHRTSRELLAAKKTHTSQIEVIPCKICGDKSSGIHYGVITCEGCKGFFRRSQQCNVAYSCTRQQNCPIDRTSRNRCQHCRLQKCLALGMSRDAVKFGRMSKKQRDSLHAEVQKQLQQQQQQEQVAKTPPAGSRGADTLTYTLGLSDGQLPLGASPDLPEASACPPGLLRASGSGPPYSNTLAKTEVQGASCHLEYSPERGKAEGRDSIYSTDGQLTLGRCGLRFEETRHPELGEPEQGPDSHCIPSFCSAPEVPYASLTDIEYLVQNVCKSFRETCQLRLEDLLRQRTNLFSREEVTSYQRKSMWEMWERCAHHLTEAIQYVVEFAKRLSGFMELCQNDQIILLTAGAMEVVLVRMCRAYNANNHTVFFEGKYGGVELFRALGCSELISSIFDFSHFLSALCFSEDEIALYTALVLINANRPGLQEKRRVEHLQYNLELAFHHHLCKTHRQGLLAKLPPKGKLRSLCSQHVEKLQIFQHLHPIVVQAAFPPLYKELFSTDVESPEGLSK

Each molecule was assayed against Nuclear receptor ROR-gamma (Mus musculus) (UniProt P51450) (assay: qHTS for inhibitors of ROR gamma transcriptional activity). Settings: Drosophila S2 Gal4-RORgamma UAS-luciferase reporter, 20 h; activity change, negative = inhibition: at 53.6 µM (top of the series).
Procedure, shortened: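 In this cell-based reporter format, copper sulfate (700 uM final) drives Gal4–ROR gamma fusion expression from a metallothionein promoter in Drosophila Schneider cells; compounds preincubated 1 hr, reporter read after 20 hr at ambient temperature.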
% is scaled to controls: 0 for no effect and ±100 for the full control effect; potency is read from the fitted curve at half-maximal effect.
Also: nearly all actives have a fitted effect of over 60% in size.

| SMILES | Potency | activity change, negative = inhibition |
| --- | --- | --- |
| O=C(NCc1ccc(F)cc1)c1ccc(CS(=O)(=O)Cc2ccccc2F)o1 | inconclusive: 11.2 µM [activator, partial curve] | – |
| Cn1c(/C(C#N)=C(\O)c2ccc(S(=O)(=O)N3CCCCC3)cc2)nc2ccccc21 | active: 4.47 µM | – |
| CC(C)Cn1cc(C(=O)N2CCC(C)CC2)c2c3ccccc3n(C)c2c1=O | inconclusive: 15.8 µM [activator, single point] | – |
| Cc1cc(C)cc(Nc2c3c(nc4ncnn24)CCC3)c1 | inconclusive: 17.8 µM [inhibitor, single point] | – |
| O=C(c1ccccc1)N1CCN(C(=S)NCCc2ccccc2)CC1 | inconclusive: 11.2 µM [activator, partial curve] | – |
| CCCNC(=O)CNC(=S)N(Cc1ccccc1F)C1CCCCC1 | inconclusive: 17.8 µM [inhibitor, single point] | – |
| CCC(=O)[C@@]1(C)[C@H](C)C[C@@H]2[C@@H]3CCC4=CC(=O)C=C[C@@]4(C)[C@H]3[C@H](O)C[C@]21C | – | inactive: -21.3% [at 2.98 µM] |
| O=C(NCc1ccc(F)cc1)c1cnn2ccccc12 | inconclusive: 3.98 µM [activator, partial curve] | – |
| O=C(NCc1cccnc1)/C(=C\c1ccc(-c2ccc(Br)cc2)o1)S(=O)(=O)c1ccccc1 | inconclusive: 35.5 µM [inhibitor, single point] | – |
| CCOc1ccc(-c2nc(-c3cccs3)c(CC(=O)O)s2)cc1OC | inconclusive: 35.5 µM [inhibitor, single point] | – |
| NS(=O)(=O)c1ccc(CCNC(=O)C(=O)c2c[nH]c3ccccc23)cc1 | inconclusive: 15.8 µM [activator, single point] | – |
| CCC1(C)Cc2ccccc2-c2nc(NCCO)n(-c3ccc(C)cc3)c(=O)c21 (stereo not drawn) | inconclusive: 15.8 µM [activator, single point] | – |
| O=C(CSc1nc2ccccc2c(=O)n1-c1ccc(F)cc1)Nc1ccc(N2CCOCC2)cc1 | inconclusive: 8.91 µM [activator, partial curve, poor fit] | – |
| CCS(=O)(=O)N1Cc2ccccc2CC1C(=O)Nc1nc2ccccc2s1 (stereo not drawn) | active: 3.55 µM | – |
| O=C1CSC(=Nc2ccccc2)N1Cc1ccccc1 | – | inactive: -14% |
| CC(=O)Nc1ccc(NC(=O)C2CCCN(c3ncccn3)C2)cc1 (stereo not drawn) | inconclusive: 7.94 µM [activator, partial curve] | – |
| C=CCN1C(=O)CN=C1NCc1ccccc1 | – | inactive: -4.18% |
| CCCCC#Cc1cncc(C(=O)N/N=C/c2cccc(OC)c2)c1 | active: 11.2 µM | – |

As entered above.
For activity change, negative = inhibition, `O=C1CSC(=Nc2ccccc2)N1Cc1ccccc1` has the entry inactive: -14%
For Potency, `CCCNC(=O)CNC(=S)N(Cc1ccccc1F)C1CCCCC1` has the entry inconclusive: 17.8 µM [inhibitor, single point]
